# From the supplement of paper PMC10849652
# Protein sequences, listed by entry. Tags and fused reporters are not part of them. Lines headed by an entry give the natural chain unless they say otherwise; changes in a name come on top.
# UniProt Q9HCM4: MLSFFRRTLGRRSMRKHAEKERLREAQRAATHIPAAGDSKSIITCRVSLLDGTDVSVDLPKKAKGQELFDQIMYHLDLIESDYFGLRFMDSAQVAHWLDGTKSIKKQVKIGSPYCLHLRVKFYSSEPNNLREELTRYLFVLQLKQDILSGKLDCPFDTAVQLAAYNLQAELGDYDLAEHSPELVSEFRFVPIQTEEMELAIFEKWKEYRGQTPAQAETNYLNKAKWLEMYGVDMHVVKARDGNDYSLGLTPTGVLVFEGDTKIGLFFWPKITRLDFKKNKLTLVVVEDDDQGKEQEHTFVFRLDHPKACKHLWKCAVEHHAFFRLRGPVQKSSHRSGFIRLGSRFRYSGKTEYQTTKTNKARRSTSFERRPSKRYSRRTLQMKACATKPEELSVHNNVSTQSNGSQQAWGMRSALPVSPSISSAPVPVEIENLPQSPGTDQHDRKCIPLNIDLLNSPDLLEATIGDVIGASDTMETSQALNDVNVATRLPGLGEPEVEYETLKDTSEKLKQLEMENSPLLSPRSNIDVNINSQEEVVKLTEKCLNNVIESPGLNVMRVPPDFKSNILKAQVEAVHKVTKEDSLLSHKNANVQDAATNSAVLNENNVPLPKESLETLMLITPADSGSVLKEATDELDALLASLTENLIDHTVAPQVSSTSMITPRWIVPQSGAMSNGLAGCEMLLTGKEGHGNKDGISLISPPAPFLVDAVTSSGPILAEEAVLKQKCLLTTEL
# UniProt Q9UKR5: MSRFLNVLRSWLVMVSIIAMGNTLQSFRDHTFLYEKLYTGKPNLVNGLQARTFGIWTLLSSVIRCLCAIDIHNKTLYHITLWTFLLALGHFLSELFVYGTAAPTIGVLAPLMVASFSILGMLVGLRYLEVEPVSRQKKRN
# Some of the results follow.
# Key:
# Assay in all cases: log2 fold change, soluble protein after heating vs DMSO (PISA); higher = thermal stabilisation; K562 lysate, 10 uM; active = over 0.2 and 3.5 SD of the protein, either way, in both replicates (recomputed)
# [1] = compound: Cc1nc(Nc2ncc(C(=O)Nc3c(C)cccc3Cl)s2)cc(N2CCN(CCO)CC2)n1 [dasatinib]
# Outline: (§1)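 Values give the log-two fold change in thermal stability against solvent controls, from duplicates. Crude K562 extract at 1 mg/mL protein, made by dounce homogenisation in PBS pH 7.4 with 1 mM MgCl2, was treated with 10 μM compound for 30 min. After 3 min heating across 48°C-58°C, aliquots were pooled, adjusted to 0.5% NP-40 at 4°C and centrifuged at 21,000xg for 90 min. The supernatant was measured by TMTpro 16plex LC-MS/MS with channel sums equalised.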
# [2] = compound: Cn1cc(-c2ccc3c(c2)CCN3C(=O)Cc2cccc(C(F)(F)F)c2)c2c(N)ncnc21
# Outline: as §1
# [3] = compound: NC(=O)c1cnc(N[C@@H]2CCCC[C@@H]2N)nc1Nc1cccc(-n2nccn2)c1
# Outline: as §1
# [4] = compound: c1cn2cc(-c3ccc4cn[nH]c4c3)nc(Nc3ccc(N4CCOCC4)cc3)c2n1 [entospletinib]
# Outline: as §1
Target,log2 fold change [1],log2 fold change [2],log2 fold change [3],log2 fold change [4]
"EIF4G3, A0A0A0MSA7",inactive: -0.054,inactive: -0.018,–,–
EPB41L5 isoform 2 (UniProt Q9HCM4),–,–,inactive: 0.051,–
ERG28 (UniProt Q9UKR5),inactive: 0.029,inactive: 0.059,inactive: -0.015,inactive: 0.009
